Results taken from article PMC9200754.
These are yes or no findings as the source states them, for the method shown. In cells and extracts the contact can be indirect. Some binding calls cover weakened binding; strength is not graded here.

Protein sequences, listed by entry. Tags and fused reporters are not part of them. Lines headed by an entry give the natural chain unless they say otherwise; changes in a name come on top. Residues count along the entry.
UniProt P19838: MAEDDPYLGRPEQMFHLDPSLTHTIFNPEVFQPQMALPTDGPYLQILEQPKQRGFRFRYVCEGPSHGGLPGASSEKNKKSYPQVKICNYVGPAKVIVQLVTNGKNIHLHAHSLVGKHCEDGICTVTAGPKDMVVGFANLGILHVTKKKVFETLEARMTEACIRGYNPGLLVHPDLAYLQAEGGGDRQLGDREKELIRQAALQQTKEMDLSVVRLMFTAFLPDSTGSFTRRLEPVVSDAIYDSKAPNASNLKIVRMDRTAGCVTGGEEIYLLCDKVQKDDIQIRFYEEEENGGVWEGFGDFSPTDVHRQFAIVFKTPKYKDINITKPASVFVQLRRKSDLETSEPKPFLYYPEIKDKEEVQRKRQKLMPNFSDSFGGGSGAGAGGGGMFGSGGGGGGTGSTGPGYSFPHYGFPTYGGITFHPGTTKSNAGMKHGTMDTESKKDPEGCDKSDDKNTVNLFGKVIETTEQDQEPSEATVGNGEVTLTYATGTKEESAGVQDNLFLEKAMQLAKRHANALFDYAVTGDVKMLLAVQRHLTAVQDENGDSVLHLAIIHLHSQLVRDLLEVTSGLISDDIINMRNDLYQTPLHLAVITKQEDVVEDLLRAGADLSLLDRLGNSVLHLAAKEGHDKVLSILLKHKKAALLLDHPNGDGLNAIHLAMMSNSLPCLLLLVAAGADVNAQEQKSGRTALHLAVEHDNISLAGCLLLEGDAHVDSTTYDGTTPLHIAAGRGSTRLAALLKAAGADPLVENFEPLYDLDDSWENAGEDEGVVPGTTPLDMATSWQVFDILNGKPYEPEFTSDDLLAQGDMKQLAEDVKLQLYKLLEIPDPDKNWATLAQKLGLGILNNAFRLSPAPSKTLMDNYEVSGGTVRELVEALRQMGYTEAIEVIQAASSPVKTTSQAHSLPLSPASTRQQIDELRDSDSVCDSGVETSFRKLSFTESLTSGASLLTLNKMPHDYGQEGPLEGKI
Nluc-p50: residues 1-433 of P19838
UniProt Q96RR4: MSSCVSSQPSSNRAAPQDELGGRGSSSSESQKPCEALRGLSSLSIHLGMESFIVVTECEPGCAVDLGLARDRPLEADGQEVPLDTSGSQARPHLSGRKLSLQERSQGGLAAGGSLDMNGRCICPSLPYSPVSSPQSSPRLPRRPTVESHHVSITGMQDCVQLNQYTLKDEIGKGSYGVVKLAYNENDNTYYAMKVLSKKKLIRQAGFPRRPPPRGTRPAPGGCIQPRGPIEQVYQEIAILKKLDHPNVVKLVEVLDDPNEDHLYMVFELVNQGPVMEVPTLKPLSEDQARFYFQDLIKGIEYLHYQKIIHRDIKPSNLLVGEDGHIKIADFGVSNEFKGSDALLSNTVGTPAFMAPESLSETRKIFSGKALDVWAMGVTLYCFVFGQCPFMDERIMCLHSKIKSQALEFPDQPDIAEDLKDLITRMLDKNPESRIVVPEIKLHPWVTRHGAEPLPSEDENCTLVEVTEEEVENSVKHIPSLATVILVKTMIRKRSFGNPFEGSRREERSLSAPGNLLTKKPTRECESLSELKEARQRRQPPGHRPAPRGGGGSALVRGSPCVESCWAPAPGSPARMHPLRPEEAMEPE
UniProt P06241: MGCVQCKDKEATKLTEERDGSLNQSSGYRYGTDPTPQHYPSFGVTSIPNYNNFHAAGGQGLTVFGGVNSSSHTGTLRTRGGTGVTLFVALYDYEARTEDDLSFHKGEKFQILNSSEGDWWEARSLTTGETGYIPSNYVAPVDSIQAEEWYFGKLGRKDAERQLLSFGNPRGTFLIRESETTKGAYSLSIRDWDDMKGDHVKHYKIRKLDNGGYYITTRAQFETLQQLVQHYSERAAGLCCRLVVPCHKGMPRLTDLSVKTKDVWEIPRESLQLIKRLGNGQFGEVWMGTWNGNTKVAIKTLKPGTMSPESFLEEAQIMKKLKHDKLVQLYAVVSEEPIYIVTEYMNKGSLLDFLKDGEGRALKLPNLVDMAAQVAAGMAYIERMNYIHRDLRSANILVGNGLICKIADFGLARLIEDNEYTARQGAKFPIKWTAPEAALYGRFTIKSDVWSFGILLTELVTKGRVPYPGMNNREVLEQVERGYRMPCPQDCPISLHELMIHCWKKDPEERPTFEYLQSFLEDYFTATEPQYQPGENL
UniProt P42224: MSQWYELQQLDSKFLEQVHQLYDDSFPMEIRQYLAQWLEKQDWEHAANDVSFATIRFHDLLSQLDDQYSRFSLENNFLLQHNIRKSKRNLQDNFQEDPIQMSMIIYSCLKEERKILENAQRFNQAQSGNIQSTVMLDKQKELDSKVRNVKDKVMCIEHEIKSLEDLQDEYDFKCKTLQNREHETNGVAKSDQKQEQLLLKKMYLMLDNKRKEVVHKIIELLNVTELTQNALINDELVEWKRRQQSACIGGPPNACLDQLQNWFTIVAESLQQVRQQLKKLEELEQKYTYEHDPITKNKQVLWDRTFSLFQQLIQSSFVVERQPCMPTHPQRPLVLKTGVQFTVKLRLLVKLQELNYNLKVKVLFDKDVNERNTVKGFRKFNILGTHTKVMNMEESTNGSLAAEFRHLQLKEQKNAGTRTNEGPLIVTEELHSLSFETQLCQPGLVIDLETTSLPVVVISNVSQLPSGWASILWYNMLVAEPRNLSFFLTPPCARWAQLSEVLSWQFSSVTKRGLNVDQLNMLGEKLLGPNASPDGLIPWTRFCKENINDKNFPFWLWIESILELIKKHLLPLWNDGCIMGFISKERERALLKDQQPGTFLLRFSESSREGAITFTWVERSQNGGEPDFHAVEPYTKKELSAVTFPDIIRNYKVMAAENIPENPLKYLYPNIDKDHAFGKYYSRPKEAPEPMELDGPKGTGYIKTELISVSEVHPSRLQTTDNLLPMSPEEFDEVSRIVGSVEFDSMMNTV
UniProt P52630: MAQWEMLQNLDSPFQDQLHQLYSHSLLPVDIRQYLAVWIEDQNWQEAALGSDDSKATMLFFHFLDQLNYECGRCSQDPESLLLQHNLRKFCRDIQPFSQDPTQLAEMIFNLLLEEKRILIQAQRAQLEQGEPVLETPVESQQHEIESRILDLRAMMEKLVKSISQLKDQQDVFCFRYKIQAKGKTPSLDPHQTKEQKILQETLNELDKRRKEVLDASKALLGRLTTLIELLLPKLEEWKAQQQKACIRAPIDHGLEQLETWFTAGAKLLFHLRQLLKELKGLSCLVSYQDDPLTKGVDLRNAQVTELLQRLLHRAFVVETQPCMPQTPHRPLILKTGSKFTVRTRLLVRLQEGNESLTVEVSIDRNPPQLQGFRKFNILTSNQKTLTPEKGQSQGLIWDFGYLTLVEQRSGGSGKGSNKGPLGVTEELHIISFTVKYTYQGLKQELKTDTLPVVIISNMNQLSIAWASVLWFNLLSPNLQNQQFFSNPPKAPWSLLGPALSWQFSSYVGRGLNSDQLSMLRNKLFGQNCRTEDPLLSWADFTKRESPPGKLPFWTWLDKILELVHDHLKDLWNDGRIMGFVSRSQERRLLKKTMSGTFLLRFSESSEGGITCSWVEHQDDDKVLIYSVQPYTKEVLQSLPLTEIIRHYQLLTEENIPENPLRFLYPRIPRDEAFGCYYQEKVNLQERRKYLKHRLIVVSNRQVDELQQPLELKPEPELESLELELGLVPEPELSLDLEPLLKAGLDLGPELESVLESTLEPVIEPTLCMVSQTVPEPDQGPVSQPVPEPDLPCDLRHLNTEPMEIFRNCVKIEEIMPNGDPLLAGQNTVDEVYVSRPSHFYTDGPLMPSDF
UniProt Q04206: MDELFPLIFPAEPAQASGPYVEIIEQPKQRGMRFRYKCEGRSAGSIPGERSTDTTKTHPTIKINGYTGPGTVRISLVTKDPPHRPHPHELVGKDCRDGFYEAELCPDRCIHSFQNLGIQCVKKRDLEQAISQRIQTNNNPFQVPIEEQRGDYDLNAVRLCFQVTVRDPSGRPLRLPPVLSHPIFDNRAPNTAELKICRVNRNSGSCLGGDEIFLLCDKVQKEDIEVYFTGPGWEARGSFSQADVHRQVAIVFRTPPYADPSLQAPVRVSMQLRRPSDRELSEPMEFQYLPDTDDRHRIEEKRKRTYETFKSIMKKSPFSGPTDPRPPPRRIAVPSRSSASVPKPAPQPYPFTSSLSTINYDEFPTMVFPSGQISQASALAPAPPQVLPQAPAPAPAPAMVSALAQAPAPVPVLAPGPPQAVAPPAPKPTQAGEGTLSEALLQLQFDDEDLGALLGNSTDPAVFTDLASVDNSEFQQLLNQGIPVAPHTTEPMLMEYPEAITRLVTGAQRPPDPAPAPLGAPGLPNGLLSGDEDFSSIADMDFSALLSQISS

molecular target: Nluc-p50 (human) (UniProt P19838); assay: FRET or BRET

Substance | binding
YFP-CAMKK2 (from UniProt Q96RR4 1-588) | no binding
YFP-FYN (from UniProt P06241 1-537) | no binding
YFP-STAT1 (from UniProt P42224 1-750) | no binding
YFP-STAT2 (from UniProt P52630 1-851) | no binding
YFP-p65 (from UniProt Q04206 1-551) | binds
YFP-p105 (from UniProt P19838 1-968) | binds
